64 molecules from PubChem BioAssay AID493014 (National Center for Advancing Translational Sciences (NCATS), 2011) can be followed below.

The experiment is described as follows: qHTS Assay to Find Inhibitors of Chronic Active B-Cell Receptor Signaling. The settings on record: ABC-DLBCL IkBa-CBG/CBR reporter, luminescence ratio (green luciferase fused to IkBa over red control in TMD8 lymphoma cells), 4 h. An outline of the steps: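 TMD8 human ABC-DLBCL cells with doxycycline-inducible IκBα–green luciferase fusion and unfused red luciferase, in 0.5% FBS medium; compounds up to 46 uM, 4 h at 37C. Green/red luminescence ratio, filter-overlap corrected, fitted to concentration-response curves.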
(In general: In qHTS, concentration-response curves come from the screen itself.)

Setting [1] is: measured here: CBR red luminescence, cell number.
Where [2] appears, read: measured here: IkBa-CBG green luminescence.

Molecules are shown by their SMILES. The list shows a part of the results. These are further read-outs of the screen, such as a control signal, another cell line or another target. No call is given for them. The list favours compounds with an active or inconclusive main result. Potencies come from curve fits of mixed quality, noted in brackets.

For the molecule `Cc1ccc(C2(c3noc(CN(C)CC4CCCCO4)n3)CCCC2)cc1` (stereo unspecified), under setting [1], the AC50 (in general, the concentration giving half of the maximal activity seen) was 35.5 µM [rising, single point].

With `O=C(Cc1ccccc1)Nc1ccc(S(=O)(=O)N2CCCC2)cc1`, the AC50 under setting [1] is 6.31 µM [falling, partial curve, poor fit].

For the molecule `Cc1cc(C)nc(SCCn2c(N3CC(C)OC(C)C3)nc3c2c(=O)n(C)c(=O)n3C)n1` (stereo unspecified), the AC50 under setting [1] is 3.16 µM [rising, single point].

With `C/C(=N\Nc1nc2ccccc2[nH]1)c1cc2ccccc2o1`, under setting [1], the AC50 was 1.46 µM [falling, full curve].

As to `COc1ccc(C(=O)Nc2cc3c(cc2OC)CCCC3)cc1Br`, under setting [1], the AC50 was 5.01 µM [rising, full curve, poor fit].

For the molecule `Cc1cc(NC(=O)c2cccc(S(=O)(=O)N3CCCCC3)c2)no1`, the AC50 under setting [1] is 11.2 µM [falling, partial curve, poor fit].

As for `COc1ccc2[nH]c3c(NCCC4=CCCCC4)ncnc3c2c1`, the AC50 under setting [1] is 20 µM [falling, partial curve, poor fit].

In the case of `CCc1ccc(NC(=O)c2ccc(NC3=NC4CS(=O)(=O)CC4S3)cc2)cc1` (stereo unspecified), the AC50 under setting [1] is 8.91 µM [rising, partial curve].

For `COc1cccc(C2NC(=O)NC(C)=C2C(=O)Nc2ccc(C)cc2)c1` (stereo unspecified), the AC50 under setting [1] was 2.59 µM [falling, partial curve, poor fit].

Consider `CC(C)OC(=O)/C(C#N)=C/c1cn(C)c2ccccc12`, for which, under setting [1], the AC50 was 2.82 µM [rising, partial curve, poor fit].

Regarding `CCSc1nnc(NC(=O)NC(CC)(C(F)(F)F)C(F)(F)F)s1`, the AC50 under setting [1] was 6.31 µM [rising, full curve].

Regarding `Cc1c(C(=O)NCCSCc2ccco2)cccc1[N+](=O)[O-]`, the AC50 under setting [1] is 0.146 µM [rising, full curve, poor fit].

As for `CN(CCOc1ccc(Cl)cc1)CC(=O)Nc1ccc(OC(F)(F)F)cc1`, the AC50 under setting [1] was 35.5 µM [falling, single point].

As to `COc1ccccc1N(CC(=O)N/N=C(\C)c1ccccc1O)S(=O)(=O)c1ccc(C)cc1`, the AC50 under setting [1] is 3.55 µM [falling, partial curve].

Regarding `Cc1ccc(C(=O)n2cnc3ccccc32)cc1C`, under setting [1], the AC50 is 0.1 µM [rising, full curve, poor fit].

On to `COc1cc(C=NNC(=O)c2ccc(NS(=O)(=O)c3cccs3)cc2)cc(Br)c1O`, for which the AC50 under setting [1] was 20.6 µM [falling, single point].

As to `CCOC(=O)Nc1ccccc1N1C(=O)c2ccccc2C1=O`, the AC50 under setting [1] is 0.794 µM [rising, full curve, poor fit].

Turning to `O=C1c2ccccc2C(=O)N1C1CCCCC1`, under setting [1], the AC50 is 12.6 µM [rising, partial curve, poor fit].

In the case of `CCOC(=O)Cn1c(-c2cccnc2)nc(-c2ccccc2)c1-c1ccccc1`, the AC50 under setting [1] was 0.562 µM [falling, full curve, poor fit].

As for `O=C(CCC1CCCCC1)NNC(=O)c1cnccn1`, the AC50 under setting [1] was 32.6 µM [rising, partial curve, poor fit].

Turning to `COc1ccc(NC(=S)NC(=NS(=O)(=O)c2ccc(Cl)cc2)c2ccccc2)cc1`, the AC50 under setting [1] was 32.6 µM [falling, single point].

Consider `CCOC(=O)N1CCN(C(=O)c2ccc3c(c2)N(Cc2ccc(F)cc2)CCS3)CC1`, for which the AC50 under setting [1] was 35.5 µM [falling, single point].

Regarding `Cc1ccc2c(c1)N(Cc1cccc(Cl)c1)C(=O)c1cccnc1O2`, the AC50 under setting [1] was 20.6 µM [falling, single point].

For the molecule `Cc1ccc(NNC(=O)CCc2ccccc2)c(C)c1`, the AC50 under setting [1] is 35.5 µM [rising, single point].

Regarding `O=C1c2cccc3cc([N+](=O)[O-])cc(c23)C(=O)N1/N=C/c1ccc(O)cc1O`, under setting [1], the AC50 was 12.6 µM [falling, partial curve, poor fit].

Take `O=C(c1cccc(C(F)(F)F)c1)C1CCCN(C(=O)CN2CCCC2=O)C1` (stereo unspecified): the AC50 under setting [1] was 14.1 µM [falling, single point].

Turning to `Clc1ccc(Cn2nnc3ccccc32)cc1`, the AC50 under setting [1] was 10 µM [rising, partial curve].

For `COc1c(/C=N/NC(=O)[C@H]2C[C@@H]2c2ccccc2)c(CCN(C)C(C)=O)cc2c1OCO2`, the AC50 under setting [1] was 35.5 µM [falling, single point].

Regarding `CN(C1=NC(=O)CS1)c1ccc(O)cc1`, the AC50 under setting [1] was 14.1 µM [rising, single point].

For the molecule `CSc1nc(-c2ccccc2)nc(NC(=O)c2ccccc2)c1C(C)=O`, under setting [1], the AC50 was 8.91 µM [falling, partial curve, poor fit].

Consider `COc1ccc2occ(C(=O)c3cccs3)c2c1`, for which the AC50 under setting [1] is 4.11 µM [rising, full curve, poor fit].

For the molecule `c1ccc2c(N3CCOCC3)nc(-c3ccncc3)nc2c1`, the AC50 under setting [1] is 8.2 µM [falling, partial curve, poor fit].

For the molecule `CS/C(Nc1cc(Cl)ccc1Cl)=C(/C#N)C(=O)c1ccco1`, the AC50 under setting [1] is 14.1 µM [falling, single point].

On to `O=C(NC(=S)Nc1ccc(Cc2ccncc2)cc1)c1ccc(F)cc1`, for which, under setting [1], the AC50 is 14.1 µM [falling, single point].

As to `CCCCOc1ccc(CSC(=N)N)cc1[N+](=O)[O-]`, the AC50 under setting [1] was 29.1 µM [falling, single point].

For `CCCc1ccc(C(C)NC(=S)NCc2ccc(F)cc2)cc1` (stereo unspecified), under setting [1], the AC50 was 15.8 µM [falling, partial curve, poor fit].

For the molecule `O=[N+]([O-])c1cccc(CSC2=NCCN2S(=O)(=O)c2ccccc2)c1`, the AC50 under setting [1] is 35.5 µM [falling, single point].

With `O=C(c1ccccc1)c1cc2cc(Cl)ccc2[nH]1`, under setting [1], the AC50 is 0.398 µM [rising, partial curve, poor fit].

As to `Cc1cccc(N2CCc3c2nc2ccc(Br)cc2c3N)c1`, the AC50 runs as follows: under setting [1], 29.1 µM [falling, single point]; under setting [2], 29.1 µM [rising, single point].

Consider `CCCCc1cc(=O)oc2cc(OS(C)(=O)=O)ccc12`, for which the AC50 under setting [1] is 14.6 µM [rising, partial curve].

Take `Cc1c(OC(C(=O)O)c2ccccc2)ccc2c3c(c(=O)oc12)CCC3` (stereo unspecified): the AC50 under setting [1] was 28.2 µM [falling, single point].

In the case of `Oc1ccc(NC(=S)N=Nc2c(O)[nH]c3ccccc23)cc1`, the AC50 under setting [1] is 4.47 µM [falling, full curve].

Take `CC1CCCN(S(=O)(=O)c2ccc(C(=O)Nc3nnc(-c4ccncc4)o3)cc2)C1` (stereo unspecified): under setting [1], the AC50 was 35.5 µM [falling, single point].

Turning to `O=C(O)CSc1ncnc2c1oc1ccccc12`, the AC50 under setting [1] was 35.5 µM [rising, single point].

`CC(=O)c1c(C)[nH]c(C(=O)Nc2nc(-c3ccccc3)c(C)s2)c1C`: under setting [1], the AC50 is 4.61 µM [rising, partial curve, poor fit].

In the case of `CC(/C=N/NC(=O)Cc1cccs1)=C\c1ccccc1`, the AC50 under setting [1] is 14.6 µM [rising, partial curve, poor fit].

As for `C=CCn1c(SCC(=O)N2CCCC2)nc2scc(-c3cccs3)c2c1=O`, under setting [1], the AC50 is 1.58 µM [falling, partial curve, poor fit].

Take `Cc1[nH]n(C)c(=O)c1C(=O)c1c(-c2c(Cl)cccc2Cl)noc1C`: the AC50 under setting [1] was 12.6 µM [falling, single point].

For `NS(=O)(=O)c1cccc(NC(=O)c2cc(-c3cccs3)nc3ccccc23)c1`, under setting [1], the AC50 was 35.5 µM [falling, single point].

For `CC(CC(=O)N1CCN(c2cccc(Cl)c2)CC1)S(=O)(=O)c1ccc2c(c1)NC(=O)CO2` (stereo unspecified), the AC50 under setting [1] was 35.5 µM [falling, single point].

For `Cc1cc(=O)n2[nH]c(-c3cccnc3)nc2n1`, the AC50 under setting [1] was 20.6 µM [falling, single point].

With `COc1ccc(OCC(=O)N/N=C/c2ccc(N(C)C)cc2)cc1`, the AC50 under setting [1] is 7.94 µM [falling, partial curve, poor fit].

As for `CCCCNC(=S)N(CCN(CC)CC)Cc1cc2cc3c(cc2[nH]c1=O)OCCO3`, the AC50 under setting [2] is 5.01 µM [falling, partial curve, poor fit].

Turning to `CC(C)CN1C(=S)SC(C)(C)C1n1oc(=O)n(-c2ccc(Cl)cc2)c1=O` (stereo unspecified), under setting [1], the AC50 is 29.1 µM [falling, single point].

Consider `NC(=S)N/N=C/c1ccc(-n2nncc2-c2ccc(Cl)cc2)cc1`, for which the AC50 under setting [1] was 14.1 µM [falling, single point].

As to `S=C(Nc1ccccc1)N1CCCCCCC1`, the AC50 under setting [1] is 0.794 µM [falling, full curve, poor fit].

As to `Cc1ccc(-c2ccc(/C=C(\C#N)C(N)=S)o2)c([N+](=O)[O-])c1`, under setting [1], the AC50 was 35.5 µM [falling, single point].

For `Cc1sc(NC(=O)/C=C/C(=O)O)c(C(N)=O)c1-c1ccc(C(C)(C)C)cc1`, under setting [1], the AC50 is 18.4 µM [falling, single point].

In the case of `NC(=S)N/N=C\c1ccccc1OCc1ccccc1`, the AC50 under setting [1] is 29.1 µM [falling, single point] and the AC50 under setting [2] is 18.4 µM [falling, single point].

On to `Cn1c(=O)cc(OCCCC(=O)N2CCN(Cc3ccc4c(c3)OCO4)CC2)c2ccccc21`, for which the AC50 under setting [1] is 4.47 µM [rising, partial curve].

On to `Cc1c(CCOC(=O)C23CC4(C)CC(C)(CC(C)(C4)C2)C3)sc[n+]1CC(=O)c1ccccc1`, for which, under setting [1], the AC50 was 14.1 µM [falling, single point].

For `O=C(NC1(C(F)(F)F)C(=O)Nc2c1c(=O)[nH]c(=O)n2Cc1ccccc1)c1ccco1` (stereo unspecified), the AC50 under setting [1] is 0.562 µM [falling, partial curve, poor fit].

With `CCOC(=O)c1c(C)[nH]c(C)c1S(=O)(=O)NCC1CCN(Cc2ccccc2F)CC1`, the AC50 under setting [1] was 14.1 µM [rising, partial curve, poor fit].

Regarding `CCOP(=O)(c1ccc(N(C)C)cc1)C(O)c1ccc(C)cc1` (stereo unspecified), under setting [1], the AC50 is 3.98 µM [rising, full curve, poor fit].
